Some entries share one result that the patent states for a list of compounds.
Tested on: A549 cells
Assay: A549 live cell count, trypan blue
Assay type: cell-based, human
Settings: 48 h; live cells fewer than initially plated
Experimental: (A) Inhibitory effect of CREB-mediated gene transcription by compounds i and ii in HEK 293 cells. Cells were transiently transfected with a plasmid encoding firefly luciferase under the control of three iterative copies of CRE (pCRE-Luc). Compound i or ii was added to the transfected cells in triplicate 30 min prior to the addition of forskolin (Fsk, 10 μM). The luciferase activity was measured using Dual Luciferase Reagent (Promega) and normalized to the co-transfected renilla luciferase (pRL-SV40, Promega). (B) Exponentially growing A549 cells in a 6-well plate (1.5×10^5 cells/well) were treated increasing concentrations of compound i or ii in triplicate for 48 h. […] Data were presented as mean±SD.
To investigate whether apoptosis was activated upon treatment, A549 cells were treated with either naphthol AS-E phosphate (i, 10 μM) or naphthol AS-E (ii, 10 μM) for 48 h. The cells were then analyzed by flow cytometry after staining with annexin-V and propidium iodide (PI). In this two-dye binding assay, annexin-V will bind phosphatidylserine exposed on the dying apoptotic cell surface while PI will only stain dead cells whose plasma-membrane integrity is compromised. This assay can discriminate intact cells (annexin^−/PI^−), apoptotic cells (annexin^+/PI^−) and necrotic or late apoptotic cells (annexin^+/PI^+).

| SMILES | concentration inducing A549 cell death [µM] |
| --- | --- |
| O=C(Nc1ccc(Cl)cc1)c1cc2ccccc2cc1OP(=O)(O)O [naphthol AS-E phosphate] | ≥ 7.5 |
| O=C(Nc1ccc(Cl)cc1)c1cc2ccccc2cc1O [naphthol AS-E] | ≥ 7.5 |

Reference: patent US8653086B2, “Naphthamides as anticancer agents” (Oregon Health & Science University, priority 2008, dated 2014)
